Measured values from PMC11741623.
These are yes or no findings as the source states them, for the method shown. In cells and extracts the contact can be indirect. Some entries that bind do so weakly or less than the wild type.

Legend:
[1] = biological target: Leu2p (ORF of yeast LEU2) (yeast) (UniProt P04173); assay: split reporter; mDHFR protein-fragment complementation in diploid S. cerevisiae, clonal strains, all pairwise combinations of F[1,2]- and F[3]-tagged ORFs, growth on SC-URA + 100 ug/mL methotrexate agar, two days, scanned
[2] = biological target: TRIM15 (human) (UniProt Q9C019); assay: split reporter
[3] = biological target: SARS-CoV-2 NSP4 (SARS-CoV-2) (UniProt P0DTD1); assay: split reporter; pooled PPIseq: mDHFR protein-fragment complementation in diploid S. cerevisiae, hORF-F[1,2] x vORF-F[3], pooled competition in SD+His+Leu + 1 ug/mL methotrexate at 30 C, triplicate, lineage fitness by double-barcode sequencing; hit: FDR < 0.05 against NULL-F[1,2] x vORF-F[3] in at least one replicate

Binder | binding [3] | further results
Leu2p (ORF of yeast LEU2) (protein, UniProt P04173 1-364) MSAPKKIVVLPGDHVGQEITAEAIKVLKAISDVRSNVKFDFENHLIGGAAIDATGVPLPDEALEASKKADAVLLGAVGGPKWGTGSVRPEQGLLKIRKELQLYANLRPCNFASDSLLDLSPIKPQFAKGTDFVVVRELVGGIYFGKRKEDDGDGVAWDSEQYTVPEVQRITRMAAFMALQHEPPLPIWSLDKANVLASSRLWRKTVEETIKNEFPTLKVQHQLIDSAAMILVKNPTHLNGIIITSNMFGDIISDEASVIPGSLGLLPSASLASLPDKNTAFGLYEPCHGSAPDLPKNKVNPIATILSAAMMLKLSLNLPEEGKAIEDAVKKVLDAGIRTGDLGGSNSTTEVGDAVAEEVKKILA | – | binding [1]: binds
TRIM15 (protein, UniProt Q9C019 1-465) MPATPSLKVVHELPACTLCAGPLEDAVTIPCGHTFCRLCLPALSQMGAQSSGKILLCPLCQEEEQAETPMAPVPLGPLGETYCEEHGEKIYFFCENDAEFLCVFCREGPTHQAHTVGFLDEAIQPYRDRLRSRLEALSTERDEIEDVKCQEDQKLQVLLTQIESKKHQVETAFERLQQELEQQRCLLLARLRELEQQIWKERDEYITKVSEEVTRLGAQVKELEEKCQQPASELLQDVRVNQSRCEMKTFVSPEAISPDLVKKIRDFHRKILTLPEMMRMFSENLAHHLEIDSGVITLDPQTASRSLVLSEDRKSVRYTRQKKSLPDSPLRFDGLPAVLGFPGFSSGRHRWQVDLQLGDGGGCTVGVAGEGVRRKGEMGLSAEDGVWAVIISHQQCWASTSPGTDLPLSEIPRGVRVALDYEAGQVTLHNAQTQEPIFTFTASFSGKVFPFFAVWKKGSCLTLKG | – | binding [2]: binds
KDEL-receptor KDELR2 (receptor, UniProt P33947 1-212) MNIFRLTGDLSHLAAIVILLLKIWKTRSCAGISGKSQLLFALVFTTRYLDLFTSFISLYNTSMKVIYLACSYATVYLIYLKFKATYDGNHDTFRVEFLVVPVGGLSFLVNHDFSPLEILWTFSIYLESVAILPQLFMISKTGEAETITTHYLFFLGLYRALYLVNWIWRFYFEGFFDLIAVVAGVVQTILYCDFFYLYITKVLKGKKLSLPA | binds | –
KDEL-receptor KDELR3 (receptor, UniProt O43731 1-214) MNVFRILGDLSHLLAMILLLGKIWRSKCCKGISGKSQILFALVFTTRYLDLFTNFISIYNTVMKVVFLLCAYVTVYMIYGKFRKTFDSENDTFRLEFLLVPVIGLSFLENYSFTLLEILWTFSIYLESVAILPQLFMISKTGEAETITTHYLFFLGLYRALYLANWIRRYQTENFYDQIAVVSGVVQTIFYCDFFYLYVTKVLKGKKLSLPMPI | binds | –
